Experiment [1] has as its target FVEGF121 fusion protein (bovine; human) (UniProt P15692). The experiment can be described thus: reconstituted ribonuclease activity, S-tag assay.
For experiment [2] the target is unchanged. The experiment is described as follows: reconstituted ribonuclease activity, S-tag Rapid Assay Kit.

By UniProt entry, the sequences of proteins in these tests, tags left out. Residues count along the entry.
UniProt P61823, residues 47-150: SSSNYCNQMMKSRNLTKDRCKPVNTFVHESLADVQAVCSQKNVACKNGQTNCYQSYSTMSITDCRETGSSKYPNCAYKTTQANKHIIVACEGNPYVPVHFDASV

These are yes or no findings as the source states them, for the method shown. Some results given as binding are weak or reduced against the parent protein; the word gives no strength.

As to “Lip(Dox)-SP (doxorubicin-loaded liposome carrying S-protein) (from UniProt P61823 47-150)”, the binding entry in experiment [1] and in experiment [2] was “binds” throughout.
